The other results are listed elsewhere or left out.
Key:
Assay in all cases: glycan array binding signal (z-score within array); higher = stronger binding
Details in all cases: glycan notation: IUPAC condensed, linker removed; mutation: D21K
[1] = target: Fuc(a1-2)[GalNAc(a1-3)]Gal(b1-3)GlcNAc(b1-3)GalNAc
Summary of the method: (§1)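 The binding signal is a Z-score computed within each array. Data were drawn from 3228 arrays in the Consortium for Functional Glycomics database, restricted to those with a known protein sequence. Scores were averaged over arrays of the same protein sequence at different concentrations or buffers, and over linkers, and negative values can be taken as non-binding.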

[2] = target: Fuc(a1-2)[GalNAc(a1-3)]Gal(b1-3)GlcNAc(b1-6)GalNAc
Summary of the method: as §1

[3] = target: Fuc(a1-2)[GalNAc(a1-3)]Gal(b1-4)Glc
Summary of the method: as §1

[4] = target: Fuc(a1-2)[GalNAc(a1-3)]Gal(b1-4)GlcNAc
Summary of the method: as §1

[5] = target: Fuc(a1-2)[GalNAc(a1-3)]Gal(b1-4)GlcNAc(b1-2)Man
Summary of the method: as §1

[6] = target: Fuc(a1-2)[GalNAc(a1-3)]Gal(b1-4)GlcNAc(b1-2)Man(a1-3)[Fuc(a1-2)[GalNAc(a1-3)]Gal(b1-4)GlcNAc(b1-2)Man(a1-6)]Man(b1-4)GlcNAc(b1-4)GlcNAc
Summary of the method: as §1

[7] = target: Fuc(a1-2)[GalNAc(a1-3)]Gal(b1-4)GlcNAc(b1-2)Man(a1-3)[Fuc(a1-2)[GalNAc(a1-3)]Gal(b1-4)GlcNAc(b1-2)Man(a1-6)]Man(b1-4)GlcNAc(b1-4)[Fuc(a1-6)]GlcNAc
Summary of the method: as §1

[8] = target: Fuc(a1-2)[GalNAc(a1-3)]Gal(b1-4)GlcNAc(b1-3)Gal(b1-4)GlcNAc
Summary of the method: as §1

[9] = target: Fuc(a1-2)[GalNAc(a1-3)]Gal(b1-4)GlcNAc(b1-3)Gal(b1-4)GlcNAc(b1-3)Gal(b1-4)GlcNAc
Summary of the method: as §1

[10] = target: Fuc(a1-2)[GalNAc(a1-3)]Gal(b1-4)GlcNAc(b1-3)GalNAc
Summary of the method: as §1

[11] = target: Fuc(a1-2)[GalNAc(a1-3)]Gal(b1-4)GlcNAc(b1-3)[Fuc(a1-2)[GalNAc(a1-3)]Gal(b1-4)GlcNAc(b1-6)]GalNAc
Summary of the method: as §1

[12] = target: Fuc(a1-2)[GalNAc(a1-3)]Gal(b1-4)GlcNAc(b1-6)GalNAc
Summary of the method: as §1

[13] = target: Fuc(a1-2)[GalNAc(a1-3)]Gal(b1-4)[Fuc(a1-3)]GlcNAc
Summary of the method: as §1

[14] = target: Fuc(a1-2)[GalNAc(a1-3)]Gal(b1-4)[Fuc(a1-3)]GlcNAc(b1-3)GalNAc
Summary of the method: as §1

[15] = target: Fuc(a1-2)[GalNAc(a1-4)]Gal(b1-4)GlcNAc
Summary of the method: as §1

[16] = target: Fuc(a1-2)[GalNAc(b1-3)]Gal
Summary of the method: as §1

Fuc(a1-3)GlcNAc = target: Fuc(a1-3)GlcNAc
Summary of the method: as §1

[17] = target: Fuc(a1-3)[Gal(b1-4)]Glc6S
Summary of the method: as §1

[18] = target: Fuc(a1-3)[Gal(b1-4)]GlcNAc
Summary of the method: as §1

[19] = target: Fuc(a1-3)[Gal(b1-4)]GlcNAc(b1-2)Man
Summary of the method: as §1

[20] = target: Fuc(a1-3)[Gal(b1-4)]GlcNAc(b1-2)Man(a1-3)[Fuc(a1-3)[Gal(b1-4)]GlcNAc(b1-2)Man(a1-6)]Man(b1-4)GlcNAc(b1-4)GlcNAc
Summary of the method: as §1

[21] = target: Fuc(a1-3)[Gal(b1-4)]GlcNAc(b1-2)Man(a1-3)[Fuc(a1-3)[Gal(b1-4)]GlcNAc(b1-2)Man(a1-6)]Man(b1-4)GlcNAc(b1-4)[Fuc(a1-6)]GlcNAc
Summary of the method: as §1

[22] = target: Fuc(a1-3)[Gal(b1-4)]GlcNAc(b1-3)Gal(b1-3)[Fuc(a1-4)]GlcNAc
Summary of the method: as §1

[23] = target: Fuc(a1-3)[Gal(b1-4)]GlcNAc(b1-3)Gal(b1-4)[Fuc(a1-3)]GlcNAc
Summary of the method: as §1

[24] = target: Fuc(a1-3)[Gal(b1-4)]GlcNAc(b1-3)Gal(b1-4)[Fuc(a1-3)]GlcNAc(b1-3)Gal(b1-4)[Fuc(a1-3)]GlcNAc
Summary of the method: as §1

[25] = target: Fuc(a1-3)[Gal(b1-4)]GlcNAc(b1-3)GalNAc
Summary of the method: as §1

[26] = target: Fuc(a1-3)[Gal(b1-4)]GlcNAc(b1-6)GalNAc
Summary of the method: as §1

[27] = target: Fuc(a1-3)[Gal(b1-4)]GlcNAc(b1-6)[Gal(b1-3)GlcNAc(b1-3)]Gal(b1-4)Glc
Summary of the method: as §1

[28] = target: Fuc(a1-3)[Gal(b1-4)]GlcNAc6S
Summary of the method: as §1

[29] = target: Fuc(a1-3)[Gal3S(b1-4)]Glc
Summary of the method: as §1

[30] = target: Fuc(a1-3)[Gal3S(b1-4)]GlcNAc
Summary of the method: as §1

[31] = target: Fuc(a1-3)[Gal3S(b1-4)]GlcNAc6S
Summary of the method: as §1

[32] = target: Fuc(a1-3)[GalNAc(b1-4)]GlcNAc
Summary of the method: as §1

[33] = target: Fuc(a1-3)[GalNAc(b1-4)]GlcNAc6S
Summary of the method: as §1

Fuc(a1-4)GlcNAc = target: Fuc(a1-4)GlcNAc
Summary of the method: as §1

Fuc(b1-3)GlcNAc = target: Fuc(b1-3)GlcNAc
Summary of the method: as §1

Gal(a1-2)Gal = target: Gal(a1-2)Gal
Summary of the method: as §1

KILRGVCKKIMRTFLRRISKKILTGKK [C7A (Sus scrofa)]
glycan array binding signal (z-score) [1]: 0.129
glycan array binding signal (z-score) [2]: -0.946
glycan array binding signal (z-score) [3]: 0.049
glycan array binding signal (z-score) [4]: -0.572
glycan array binding signal (z-score) [5]: 0.411
glycan array binding signal (z-score) [6]: -0.971
glycan array binding signal (z-score) [7]: -0.327
glycan array binding signal (z-score) [8]: 0.476
glycan array binding signal (z-score) [9]: -0.58
glycan array binding signal (z-score) [10]: -0.663
glycan array binding signal (z-score) [11]: 0.698
glycan array binding signal (z-score) [12]: -0.922
glycan array binding signal (z-score) [13]: 0.829
glycan array binding signal (z-score) [14]: 0.81
glycan array binding signal (z-score) [15]: -1.83
glycan array binding signal (z-score) [16]: -2.16
glycan array binding signal (z-score) (Fuc(a1-3)GlcNAc): 0.07
glycan array binding signal (z-score) [17]: 0.358
glycan array binding signal (z-score) [18]: -0.883
glycan array binding signal (z-score) [19]: 0.088
glycan array binding signal (z-score) [20]: -0.57
glycan array binding signal (z-score) [21]: 0.986
glycan array binding signal (z-score) [22]: -0.475
glycan array binding signal (z-score) [23]: -0.58
glycan array binding signal (z-score) [24]: -0.191
glycan array binding signal (z-score) [25]: 1.11
glycan array binding signal (z-score) [26]: -0.499
glycan array binding signal (z-score) [27]: 1.05
glycan array binding signal (z-score) [28]: -0.09
glycan array binding signal (z-score) [29]: 0.754
glycan array binding signal (z-score) [30]: -0.017
glycan array binding signal (z-score) [31]: 0.794
glycan array binding signal (z-score) [32]: 0.298
glycan array binding signal (z-score) [33]: 0.361
glycan array binding signal (z-score) (Fuc(a1-4)GlcNAc): -0.294
glycan array binding signal (z-score) (Fuc(b1-3)GlcNAc): -0.517
glycan array binding signal (z-score) (Gal(a1-2)Gal): -1.04

Reference: the supplement of paper PMC8728848
